Values quoted from earlier work as cited in US20260216341A1, “KETO ACID BIOPOLYMERS AND POLYOL KETO ESTERS AND USES THEREOF” (ATOSSA THERAPEUTICS, INC., priority 2023, published 2026).

Conditions: scale 0 to 100

| Compound | Glycemic index |
| --- | --- |
| OC[C@@H](O)[C@@H](O[C@@H]1O[C@H](CO)[C@H](O)[C@H](O)[C@H]1O)[C@H](O)[C@@H](O)CO [lactitol] | 6 |
| O=C[C@H](O)[C@@H](O)[C@H](O)[C@H](O)CO [glucose, reference compound] | 100 |
| isomalt | 9 |
| OC[C@@H](O)[C@@H](O)[C@H](O)[C@H](O)CO [mannitol] | 0 |
| OCC(O)CO [glycerol] | 3 |
| OC[C@@H](O)[C@@H](O)[C@H](O)[C@@H](O)CO [sorbitol] | 9 |
| OC[C@@H](O)[C@@H](O[C@H]1O[C@H](CO)[C@@H](O)[C@H](O)[C@H]1O)[C@H](O)[C@@H](O)CO [maltitol] | 35 |
| OC[C@@H](O)[C@@H](O)CO [erythritol] | 0 |
| OC[C@@H](O)[C@H](O)[C@@H](O)CO [xylitol] | 13 |
